{
  "source": "patent US20230372302A1",
  "about": "(priority 2019, published 2023)",
  "origin": "cited, not measured here",
  "conditions": "human, in vivo; cited from earlier work",
  "data": [
    {"smiles": "COc1cc2nc(N3CCN(C(=O)C4COc5ccccc5O4)CC3)nc(N)c2cc1OC", "note": "(stereo not shown) [DOXAZOSIN, 1-(4-amino-6,7-dimethoxy-2-quinazolinyl)-4-(1,4benzodioxan-2-ylcarbonyl) piperazine methanesulfonate]", "values": [
      {"measurement": "dizziness", "result": "15-19%"}
    ]}
  ]
}
